Screen size: about 360,000 compounds; about 7,500 (2.1%) were called active. This list was built around the results that the source calls inconclusive (neither active nor inactive); the mix of calls is not that of the screen. Calls come from the whole dose curve; as a rule, active = well fitted inhibition curve with a large enough effect; inconclusive = small, poorly fitted or top-dose-only effect, or effect the other way; inactive = flat fitted curve, though single readings scatter. Potencies of inconclusive entries are doubtful fits and often do not repeat.
Assay: Nrf2 qHTS screen for inhibitors; note: nearly all actives have a fitted effect of over 60% in size
Conditions: A549 ARE-Fluc reporter, luciferase luminescence, 18-24 h; series mostly up to 46 µM
How it was run: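 A549 ARE_Fluc cells, 5000/well, 5% FBS OPTI-MEM; compounds in dose-response, 18-24 h at 37 °C/5% CO2; CellTiter-Fluor viability read (Ex 405/Em 525), then BugLite luciferase luminescence = Nrf2 activity.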
Potency is the fitted concentration of half-maximal effect.

| SMILES | Potency |
| --- | --- |
| COc1ccc2oc(C(=O)OCC(=O)NC3CCCC3)c(C)c2c1 | inconclusive: 29.1 µM [activator, single point] |
| Cc1ccc(-c2ccc(/C=N/NC(N)=S)o2)cc1 | inconclusive: 2.31 µM [activator, partial curve] |
| COCCn1c(C)cc(C(=O)COC(=O)c2ccc(Cl)c(S(N)(=O)=O)c2)c1C | inconclusive: 1.16 µM [activator, full curve, poor fit] |
| O=C(CSc1ccc([N+](=O)[O-])cc1)NNC(=O)c1ccccc1F | inconclusive: 0.58 µM [activator, full curve, poor fit] |
| CCOC(=O)c1c(NC(=O)c2cc3n(n2)C(C(F)(F)F)CC(c2ccccc2)N3)sc(C)c1C (configuration not stated) | inconclusive: 23.1 µM [falling, single point] |
| N#C/C(=C\c1ccc(-c2ccc(F)cc2)o1)C(=O)Nc1nc(-c2cccs2)cs1 | inconclusive: 29.1 µM [falling, single point] |
| Cc1ccc2nc(NC(=O)Cn3cc4c(n3)CCCCC4)sc2c1 | inconclusive: 16.4 µM [activator, partial curve] |
| CN(C)c1ccc(NC(=S)NCC2CCCO2)cc1 (configuration not stated) | inconclusive: 20.6 µM [activator, partial curve] |
| COc1ccc2c(c1OC)C(=O)N1N=C(c3ccc(Br)cc3)CC21 (configuration not stated) | inconclusive: 29.1 µM [falling, single point] |
| Fc1ccc2c(c1)C1OCCCC1C(c1ccccc1)N2 (configuration not stated) | inconclusive: 29.1 µM [falling, single point] |
| CCc1ccc(NC(=O)N2CCN(c3ccccc3)CC2)cc1 | inconclusive: 6.51 µM [activator, partial curve] |
| COc1ccc(CNC(=O)CCNS(=O)(=O)c2ccc3c(c2)CCCC(=O)N3)cc1 | inactive |
| O=C(O)c1cccc(-n2cc(-c3cccc(C(F)(F)F)c3)cn2)c1 | inconclusive: 14.6 µM [activator, partial curve] |
| Cc1ccc(Cl)cc1N(C)C(=O)C1CCCN(c2ncnc3onc(-c4ccc(F)cc4)c23)C1 (configuration not stated) | inconclusive: 29.1 µM [falling, single point] |
| O=C(CCc1ccc(S(=O)(=O)NCCc2ccccc2)cc1)Nc1ccc2c(c1)OCCO2 | inconclusive: 18.4 µM [falling, partial curve, poor fit] |
| CCn1c2ccccc2c2nc3ccccc3nc21 | inconclusive: 23.1 µM [activator, single point] |
| CSc1ccc(C(=O)C2CCCN(Cc3cccn3-c3cccnc3)C2)cc1 (configuration not stated) | inconclusive: 29.1 µM [falling, single point] |
| Cc1ccccc1-n1c2nc(=O)n(C)c(=O)c-2cc2ccccc21 | inactive |
| C/C(=N\NC(=O)CSCc1ccc(Cl)cc1)c1ccc2c(c1)OCCO2 | active: 16.4 µM |
| CC(=O)NC12CC3CC(C1)CC(C(=O)OCC(=O)c1cc(C)n(C)c1C)(C3)C2 | inconclusive: 1.3 µM [activator, full curve] |
| CN(C)Cc1ccc(F)cc1Sc1ccc(Cl)cc1Cl | inconclusive: 29.1 µM [falling, partial curve, poor fit] |

| SMILES | Potency |
| --- | --- |
| Cc1ccc(C(=O)N2N=C(c3cccc(NS(C)(=O)=O)c3)CC2c2cccs2)cc1 (configuration not stated) | active: 23.1 µM |
| COc1ccc(NC(=O)CN(C)C(=O)c2cn(-c3ccccc3)nc2-c2ccc(F)cc2)cc1 | inconclusive: 7.31 µM [falling, partial curve] |
| Cc1nn(-c2ccc(N3CCCC3)nn2)c(C)c1CCC(=O)N1CCN(c2ccccc2F)CC1 | inconclusive: 51.7 µM [falling, single point] |
| CCOC(=O)c1c(-c2ccccc2)nnn1-c1nc(OCC)nc(N2CCCCC2)n1 | inconclusive: 23.1 µM [falling, partial curve, poor fit] |
| COc1ccc(-c2ccc(C(=O)C3CC3)cc2)cc1 | inconclusive: 20.6 µM [activator, partial curve] |
| COc1ccc(N(C(=O)/C=C/C(=O)Nc2cc(C)on2)C(C(=O)NC2CCCC2)c2ccccc2C)cc1 (configuration not stated) | inconclusive: 18.4 µM [falling, single point] |
| CC1=C(C(=O)OC(C)C)C2(O)C(=O)c3ccccc3C2(O)N1 (configuration not stated) | inconclusive: 1.46 µM [falling, full curve, poor fit] |
| CCCCCn1c(=O)[nH]c2cc(C(=O)NCCCN(CC)CC)ccc2c1=O | inactive |
| COc1ccc(Cl)c2sc(N(CCN(C)C)C(=O)c3ccc4c(c3)OCCO4)nc12 | inactive |
| CCCn1c(C2CCCN2c2nc(-c3ccc(OC)cc3)cs2)nc2ccccc21 (configuration not stated) | inconclusive: 25.9 µM [falling, partial curve, poor fit] |
| Cc1c(Cl)cccc1NC(=O)N1CCCN(c2nc(-c3ccccc3)ns2)CC1 | active: 20.6 µM |
| COc1cc(-c2cc(C(=O)Nc3ccc(N4CCOCC4)cc3)c3ccccc3n2)cc(OC)c1OC | inconclusive: 20.6 µM [falling, single point] |
| CC(=O)N1CCN(c2ccc(NCc3ccc(C)cc3)cc2)CC1 | inactive |
| Cn1nnnc1Sc1ncnc2scc(-c3cccc(Cl)c3)c12 | active: 23.1 µM |
| CC(OC(=O)c1cc(=O)c2cc(Cl)ccc2o1)C(=O)N1CCCC1 (configuration not stated) | inactive |
| O=C(COC(=O)c1cccnc1Nc1cccc(C(F)(F)F)c1)NC1CCS(=O)(=O)C1 (configuration not stated) | inconclusive: 29.1 µM [falling, single point] |
| CCN(CC)c1ncnc2c1[nH]c1ccccc12 | inconclusive: 23.1 µM [falling, single point] |
| Cc1c(Cl)cccc1NC(=S)N(CCN(C)C)C(C)c1ccco1 (configuration not stated) | inconclusive: 29.1 µM [falling, single point] |
| Cc1cccc(C(=O)NN2S(=O)(=O)c3ccccc3S2(=O)=O)c1 | inactive |
| Cc1ccc(-n2cc(CN(C)Cc3nccn3C)c(-c3cccc(C)c3)n2)cc1 | inconclusive: 20.6 µM [activator, single point] |
| O=C(Cn1ccsc1=NC(=O)c1ccco1)c1ccccc1 | inconclusive: 29.1 µM [activator, single point] |

Part of the list above in order of SMILES length, falling:

| SMILES | Potency |
| --- | --- |
| COc1ccc(N(C(=O)/C=C/C(=O)Nc2cc(C)on2)C(C(=O)NC2CCCC2)c2ccccc2C)cc1 (configuration not stated) | inconclusive: 18.4 µM [falling, single point] |
| N#C/C(=C\c1ccc(-c2ccc(F)cc2)o1)C(=O)Nc1nc(-c2cccs2)cs1 | inconclusive: 29.1 µM [falling, single point] |
| CCc1ccc(NC(=O)N2CCN(c3ccccc3)CC2)cc1 | inconclusive: 6.51 µM [activator, partial curve] |

— PubChem BioAssay AID504444 (National Center for Advancing Translational Sciences (NCATS), 2011)
